Laboratory results taken from article PMC5098195.
Results are given in words; binding and its absence hold for the method and conditions named. In cells and extracts the contact can be indirect. Some binding calls cover weakened binding; strength is not graded here.

Protein sequences, listed by entry. Tags and fused reporters are not part of them.
UniProt P42582: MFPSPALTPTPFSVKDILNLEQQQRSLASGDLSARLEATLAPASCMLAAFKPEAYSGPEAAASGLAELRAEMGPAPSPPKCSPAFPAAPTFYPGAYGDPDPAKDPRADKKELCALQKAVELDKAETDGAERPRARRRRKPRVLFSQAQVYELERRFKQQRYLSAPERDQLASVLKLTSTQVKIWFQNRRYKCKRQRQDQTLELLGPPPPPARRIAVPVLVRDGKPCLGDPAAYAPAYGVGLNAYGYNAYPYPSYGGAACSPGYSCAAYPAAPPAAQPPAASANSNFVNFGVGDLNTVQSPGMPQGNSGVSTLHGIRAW
UniProt O35767: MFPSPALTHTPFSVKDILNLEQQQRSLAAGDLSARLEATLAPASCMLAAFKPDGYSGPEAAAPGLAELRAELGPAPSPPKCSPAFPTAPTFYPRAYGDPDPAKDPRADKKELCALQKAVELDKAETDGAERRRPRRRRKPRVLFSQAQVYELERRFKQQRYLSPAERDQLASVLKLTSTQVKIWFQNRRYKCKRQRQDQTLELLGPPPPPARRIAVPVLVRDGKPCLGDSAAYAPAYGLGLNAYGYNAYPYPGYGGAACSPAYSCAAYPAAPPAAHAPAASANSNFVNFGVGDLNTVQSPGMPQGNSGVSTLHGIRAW
UniProt Q09472: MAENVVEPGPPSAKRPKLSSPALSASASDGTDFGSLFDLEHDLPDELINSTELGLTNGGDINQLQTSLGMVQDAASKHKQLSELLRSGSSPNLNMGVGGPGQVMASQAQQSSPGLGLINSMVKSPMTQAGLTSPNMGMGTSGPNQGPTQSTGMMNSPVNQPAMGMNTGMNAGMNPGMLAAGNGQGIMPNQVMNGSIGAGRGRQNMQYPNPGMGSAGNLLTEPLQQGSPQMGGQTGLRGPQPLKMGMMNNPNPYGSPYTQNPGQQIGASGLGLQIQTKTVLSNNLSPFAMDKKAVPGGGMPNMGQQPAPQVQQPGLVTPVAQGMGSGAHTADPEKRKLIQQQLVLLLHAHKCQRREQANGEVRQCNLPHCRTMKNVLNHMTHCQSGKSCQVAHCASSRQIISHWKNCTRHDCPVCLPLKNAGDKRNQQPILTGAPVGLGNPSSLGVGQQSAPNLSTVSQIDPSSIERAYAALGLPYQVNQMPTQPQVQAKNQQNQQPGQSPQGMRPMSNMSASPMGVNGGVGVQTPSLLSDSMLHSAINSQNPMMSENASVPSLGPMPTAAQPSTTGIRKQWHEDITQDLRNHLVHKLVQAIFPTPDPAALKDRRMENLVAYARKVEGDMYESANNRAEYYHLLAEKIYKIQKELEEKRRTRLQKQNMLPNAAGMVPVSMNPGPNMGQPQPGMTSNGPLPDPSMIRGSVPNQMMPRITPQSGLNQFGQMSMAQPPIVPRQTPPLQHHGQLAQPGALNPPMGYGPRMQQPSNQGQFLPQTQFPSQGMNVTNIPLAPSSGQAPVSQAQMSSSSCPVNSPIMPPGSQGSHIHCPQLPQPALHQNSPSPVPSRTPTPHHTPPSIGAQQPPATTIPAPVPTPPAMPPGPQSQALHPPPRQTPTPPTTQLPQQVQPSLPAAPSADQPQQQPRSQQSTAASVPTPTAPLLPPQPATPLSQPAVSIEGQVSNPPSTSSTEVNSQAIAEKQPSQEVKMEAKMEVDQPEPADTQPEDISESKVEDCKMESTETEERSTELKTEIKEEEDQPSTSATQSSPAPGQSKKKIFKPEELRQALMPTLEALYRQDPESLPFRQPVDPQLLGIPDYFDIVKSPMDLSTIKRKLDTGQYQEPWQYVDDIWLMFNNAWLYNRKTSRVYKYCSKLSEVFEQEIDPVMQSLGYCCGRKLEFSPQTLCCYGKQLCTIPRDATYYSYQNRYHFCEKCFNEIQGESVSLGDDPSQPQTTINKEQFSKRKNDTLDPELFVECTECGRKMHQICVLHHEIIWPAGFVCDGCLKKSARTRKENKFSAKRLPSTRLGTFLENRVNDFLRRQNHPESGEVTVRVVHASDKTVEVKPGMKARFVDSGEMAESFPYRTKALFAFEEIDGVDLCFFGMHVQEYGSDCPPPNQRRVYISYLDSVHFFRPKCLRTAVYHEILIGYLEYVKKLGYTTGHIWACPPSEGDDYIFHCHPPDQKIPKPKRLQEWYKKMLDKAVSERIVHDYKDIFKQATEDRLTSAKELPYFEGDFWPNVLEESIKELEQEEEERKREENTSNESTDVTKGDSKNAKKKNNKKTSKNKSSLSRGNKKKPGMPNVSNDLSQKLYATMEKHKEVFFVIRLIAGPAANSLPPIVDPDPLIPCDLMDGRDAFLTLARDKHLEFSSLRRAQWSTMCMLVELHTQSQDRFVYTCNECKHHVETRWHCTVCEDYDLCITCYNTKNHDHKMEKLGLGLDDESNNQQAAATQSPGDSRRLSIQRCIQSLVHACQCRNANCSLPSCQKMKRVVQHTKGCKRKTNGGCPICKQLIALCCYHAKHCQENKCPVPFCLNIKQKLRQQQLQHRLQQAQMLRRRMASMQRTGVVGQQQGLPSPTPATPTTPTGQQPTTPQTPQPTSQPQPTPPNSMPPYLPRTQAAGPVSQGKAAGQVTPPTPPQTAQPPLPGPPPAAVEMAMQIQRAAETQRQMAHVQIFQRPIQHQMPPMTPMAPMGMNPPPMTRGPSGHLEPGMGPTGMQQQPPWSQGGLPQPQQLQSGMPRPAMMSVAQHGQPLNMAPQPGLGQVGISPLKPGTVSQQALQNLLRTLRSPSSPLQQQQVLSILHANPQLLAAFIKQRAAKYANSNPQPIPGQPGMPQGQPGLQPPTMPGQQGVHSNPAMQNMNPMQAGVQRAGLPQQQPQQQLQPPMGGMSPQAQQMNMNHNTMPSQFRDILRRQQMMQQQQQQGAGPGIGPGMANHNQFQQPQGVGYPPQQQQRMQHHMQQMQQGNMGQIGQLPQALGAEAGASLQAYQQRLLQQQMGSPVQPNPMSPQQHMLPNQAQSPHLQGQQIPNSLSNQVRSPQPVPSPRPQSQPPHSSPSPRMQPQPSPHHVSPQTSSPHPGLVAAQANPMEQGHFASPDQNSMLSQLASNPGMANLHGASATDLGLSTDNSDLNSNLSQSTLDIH

Experiments:
[1] = molecular target: Myc-tagged Nkx2.5 (mouse) (UniProt P42582); assay: co-IP; tagged proteins co-transfected into HEK293A cells for 48 hours; lysates immunoprecipitated with anti-Myc or anti-HA antibodies, western blot
[2] = molecular target: endogenous Nkx2.5 of neonatal rat cardiomyocytes (rat (endogenous in neonatal rat cardiomyocytes)) (UniProt O35767); assay: co-IP; endogenous proteins; primary neonatal rat cardiomyocytes lysed, immunoprecipitation with anti-SIRT1 or anti-Nkx2.5 antibodies or control IgG, western blot
[3] = molecular target: Nkx2.5 (plasmid of Figure 7, tag not told) (mouse) (UniProt P42582); assay: co-IP; Nkx2.5 and SRF or TBX5 plasmids co-transfected with/without SIRT1 into HEK293A cells for 48 hours; immunoprecipitation and western blot

Molecule	binding [3]	other results
HA-p300 (from UniProt Q09472 1-2414) (enzyme)	–	binding [1]: binds
endogenous SIRT1 of neonatal rat cardiomyocytes (enzyme, UniProt A0A0G2JZ79 1-741) MADEAALALQAGGSPSAAAAMEAASQPADEPLRKRPRRDGPGLGRSPGEPSAAAAAAAAAAGCEAASAAAPAALWREAAGAAAASAEREAPATAAAGDGDNGPGLRREPRAADDFDDDEGEEEDEAAAAAAAAIGYRDNLLLADEIITNGFHSCESDDDDRASHASSSDWTPRPRIGPYTFVQQHLMIGTDPRTILKDLLPETIPPPELDDMTLWQIVINILSEPPKRKKRKDINTIEDAVKLLQECKKIIVLTGAGVSVSCGIPDFRSRDGIYARLAVDFPDLPDPQAMFDIEYFRKDPRPFFKFAKEIYPGQFQPSLCHKFIALSDKEGKLLRNYTQNIDTLEQVAGIQRIIQCHGSFATASCLICKYKVDCEAVRGDIFNQVVPRCPRCPADEPLAIMKPEIVFFGENLPEQFHRAMKYDKDEVDLLIVIGSSLKVRPVALIPSSIPHEVPQILINREPLPHLHFDVELLGDCDVIINELCHRLGGEYAKLCCNPVKLSEITEKPPRTQKELVHLSELPPTPLHISEDSSSPERTVPQDSSVIATLVDQTIKNKVDDLEVSEPKSCVEEKSQEVQTYRNVESINVENPDFKAVGSSTGDKNERTSVAETVRKCWPNRLAKEQISKRLDGNQYLFVPPNRYIFHGAEVYSDSEDDALSSSSCGSNSDSGTCQSPSLEEPLEDESEIEEFYNGLEDDADRPECAGGSGADGGDQEAVNEAIAMKQELTDVNCTPDKSEHY	–	binding [2]: binds
SRF (protein, UniProt P11831 1-508) MLPTQAGAAAALGRGSALGGSLNRTPTGRPGGGGGTRGANGGRVPGNGAGLGPGRLEREAAAAAATTPAPTAGALYSGSEGDSESGEEEELGAERRGLKRSLSEMEIGMVVGGPEASAAATGGYGPVSGAVSGAKPGKKTRGRVKIKMEFIDNKLRRYTTFSKRKTGIMKKAYELSTLTGTQVLLLVASETGHVYTFATRKLQPMITSETGKALIQTCLNSPDSPPRSDPTTDQRMSATGFEETDLTYQVSESDSSGETKDTLKPAFTVTNLPGTTSTIQTAPSTSTTMQVSSGPSFPITNYLAPVSASVSPSAVSSANGTVLKSTGSGPVSSGGLMQLPTSFTLMPGGAVAQQVPVQAIQVHQAPQQASPSRDSSTDLTQTSSSGTVTLPATIMTSSVPTTVGGHMMYPSPHAVMYAPTSGLGDGSLTVLNAFSQAPSTMQVSHSQVQEPGGVPQVFLTASSGTVQIPVSAVQLHQMAVIGQQAGSSSNLTELQVVNLDTAHSTKSE	binds	–
TBX5 (protein, UniProt Q99593 1-518) MADADEGFGLAHTPLEPDAKDLPCDSKPESALGAPSKSPSSPQAAFTQQGMEGIKVFLHERELWLKFHEVGTEMIITKAGRRMFPSYKVKVTGLNPKTKYILLMDIVPADDHRYKFADNKWSVTGKAEPAMPGRLYVHPDSPATGAHWMRQLVSFQKLKLTNNHLDPFGHIILNSMHKYQPRLHIVKADENNGFGSKNTAFCTHVFPETAFIAVTSYQNHKITQLKIENNPFAKGFRGSDDMELHRMSRMQSKEYPVVPRSTVRQKVASNHSPFSSESRALSTSSNLGSQYQCENGVSGPSQDLLPPPNPYPLPQEHSQIYHCTKRKEEECSTTDHPYKKPYMETSPSEEDSFYRSSYPQQQGLGASYRTESAQRQACMYASSAPPSEPVPSLEDISCNTWPSMPSYSSCTVTTVQPMDRLPYQHFSAHFTSGPLVPRLAGMANHGSPQLGEGMFQHQTSVAHQPVVRQCGPQTGLQSPGTLQPPEFLYSHGVPRTLSPHQYHSVHGVGMVPEWSDNS	binds	–
